Source: the supplement of paper PMC12823440, “Inhibitors supercharge kinase turnover through native proteolytic circuits” (Nature, 2025)
Structures can show the parent of a compound that is named as a salt. The list shows a part of the results. Hit calls seldom repeat between salt and free forms of one compound.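 Kinases, fused to nanoluciferase, were expressed in K562 cells; luminescence was measured every 4 h from 2 to 18 h as percent of control (DMSO = 100%, positive control = 0%). A time point is decreased if signal falls significantly (2 sigma). Hits were called by the authors by a rule that is not shown; the count of time points alone does not decide it.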

Protein sequences, listed by entry. Tags and fused reporters are not part of them. Lines headed by an entry give the natural chain unless they say otherwise; changes in a name come on top.
UniProt Q15208: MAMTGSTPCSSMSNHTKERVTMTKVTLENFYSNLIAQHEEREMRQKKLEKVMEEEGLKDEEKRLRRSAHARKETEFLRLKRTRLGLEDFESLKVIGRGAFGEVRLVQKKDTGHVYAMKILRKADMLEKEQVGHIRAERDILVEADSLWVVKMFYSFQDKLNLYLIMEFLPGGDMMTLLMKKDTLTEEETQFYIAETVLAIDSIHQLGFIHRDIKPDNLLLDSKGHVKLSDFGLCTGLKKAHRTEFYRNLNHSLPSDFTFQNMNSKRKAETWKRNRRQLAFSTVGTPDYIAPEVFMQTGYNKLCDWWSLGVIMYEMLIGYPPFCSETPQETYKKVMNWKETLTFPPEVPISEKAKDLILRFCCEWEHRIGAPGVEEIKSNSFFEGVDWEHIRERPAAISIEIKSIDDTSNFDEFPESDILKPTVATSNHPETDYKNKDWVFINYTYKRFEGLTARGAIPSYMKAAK
UniProt P42680: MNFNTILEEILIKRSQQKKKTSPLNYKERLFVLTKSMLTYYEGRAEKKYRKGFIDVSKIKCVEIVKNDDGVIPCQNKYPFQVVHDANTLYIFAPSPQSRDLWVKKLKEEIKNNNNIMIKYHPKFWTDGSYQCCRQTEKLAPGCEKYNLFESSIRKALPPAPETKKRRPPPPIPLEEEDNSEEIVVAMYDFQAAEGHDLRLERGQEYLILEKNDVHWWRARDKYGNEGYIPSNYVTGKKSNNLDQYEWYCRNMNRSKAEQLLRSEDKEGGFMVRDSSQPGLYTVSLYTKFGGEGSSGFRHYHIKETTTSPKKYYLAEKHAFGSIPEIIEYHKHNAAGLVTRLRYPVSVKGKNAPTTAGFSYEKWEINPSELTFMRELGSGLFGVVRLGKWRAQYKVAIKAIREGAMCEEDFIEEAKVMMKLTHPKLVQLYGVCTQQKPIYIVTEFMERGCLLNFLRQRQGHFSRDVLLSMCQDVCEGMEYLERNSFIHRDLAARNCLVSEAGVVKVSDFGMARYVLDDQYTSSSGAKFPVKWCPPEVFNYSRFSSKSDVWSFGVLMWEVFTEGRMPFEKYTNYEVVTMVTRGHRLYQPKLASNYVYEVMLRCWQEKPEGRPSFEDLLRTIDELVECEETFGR
UniProt Q6PHR2: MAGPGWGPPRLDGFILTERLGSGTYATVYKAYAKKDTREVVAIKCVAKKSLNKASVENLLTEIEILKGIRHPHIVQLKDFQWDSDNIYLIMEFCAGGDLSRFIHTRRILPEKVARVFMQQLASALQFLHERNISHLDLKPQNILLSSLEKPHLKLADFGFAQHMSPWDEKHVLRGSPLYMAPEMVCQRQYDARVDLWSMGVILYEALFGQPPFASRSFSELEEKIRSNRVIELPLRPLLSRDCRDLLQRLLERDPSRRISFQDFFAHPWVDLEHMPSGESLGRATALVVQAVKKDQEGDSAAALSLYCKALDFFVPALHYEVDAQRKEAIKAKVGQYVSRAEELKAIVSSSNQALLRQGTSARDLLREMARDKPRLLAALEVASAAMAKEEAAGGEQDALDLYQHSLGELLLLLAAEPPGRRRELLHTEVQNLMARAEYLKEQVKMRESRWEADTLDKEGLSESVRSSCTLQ
UniProt P07947, whole entry, looked up: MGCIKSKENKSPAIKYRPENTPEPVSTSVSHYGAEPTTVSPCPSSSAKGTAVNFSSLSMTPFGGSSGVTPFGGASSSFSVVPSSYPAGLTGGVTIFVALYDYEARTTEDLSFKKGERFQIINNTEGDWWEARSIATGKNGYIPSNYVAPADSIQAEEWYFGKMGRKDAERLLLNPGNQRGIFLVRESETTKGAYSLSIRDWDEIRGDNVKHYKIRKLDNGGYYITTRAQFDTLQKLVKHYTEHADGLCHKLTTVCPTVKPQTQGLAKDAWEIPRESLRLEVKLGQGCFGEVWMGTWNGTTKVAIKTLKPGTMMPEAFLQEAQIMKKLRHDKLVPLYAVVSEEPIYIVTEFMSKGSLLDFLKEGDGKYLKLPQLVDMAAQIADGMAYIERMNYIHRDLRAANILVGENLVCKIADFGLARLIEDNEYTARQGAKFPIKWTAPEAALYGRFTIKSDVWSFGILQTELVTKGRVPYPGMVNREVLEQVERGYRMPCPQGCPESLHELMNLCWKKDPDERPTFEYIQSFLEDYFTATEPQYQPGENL
UniProt Q9UM73: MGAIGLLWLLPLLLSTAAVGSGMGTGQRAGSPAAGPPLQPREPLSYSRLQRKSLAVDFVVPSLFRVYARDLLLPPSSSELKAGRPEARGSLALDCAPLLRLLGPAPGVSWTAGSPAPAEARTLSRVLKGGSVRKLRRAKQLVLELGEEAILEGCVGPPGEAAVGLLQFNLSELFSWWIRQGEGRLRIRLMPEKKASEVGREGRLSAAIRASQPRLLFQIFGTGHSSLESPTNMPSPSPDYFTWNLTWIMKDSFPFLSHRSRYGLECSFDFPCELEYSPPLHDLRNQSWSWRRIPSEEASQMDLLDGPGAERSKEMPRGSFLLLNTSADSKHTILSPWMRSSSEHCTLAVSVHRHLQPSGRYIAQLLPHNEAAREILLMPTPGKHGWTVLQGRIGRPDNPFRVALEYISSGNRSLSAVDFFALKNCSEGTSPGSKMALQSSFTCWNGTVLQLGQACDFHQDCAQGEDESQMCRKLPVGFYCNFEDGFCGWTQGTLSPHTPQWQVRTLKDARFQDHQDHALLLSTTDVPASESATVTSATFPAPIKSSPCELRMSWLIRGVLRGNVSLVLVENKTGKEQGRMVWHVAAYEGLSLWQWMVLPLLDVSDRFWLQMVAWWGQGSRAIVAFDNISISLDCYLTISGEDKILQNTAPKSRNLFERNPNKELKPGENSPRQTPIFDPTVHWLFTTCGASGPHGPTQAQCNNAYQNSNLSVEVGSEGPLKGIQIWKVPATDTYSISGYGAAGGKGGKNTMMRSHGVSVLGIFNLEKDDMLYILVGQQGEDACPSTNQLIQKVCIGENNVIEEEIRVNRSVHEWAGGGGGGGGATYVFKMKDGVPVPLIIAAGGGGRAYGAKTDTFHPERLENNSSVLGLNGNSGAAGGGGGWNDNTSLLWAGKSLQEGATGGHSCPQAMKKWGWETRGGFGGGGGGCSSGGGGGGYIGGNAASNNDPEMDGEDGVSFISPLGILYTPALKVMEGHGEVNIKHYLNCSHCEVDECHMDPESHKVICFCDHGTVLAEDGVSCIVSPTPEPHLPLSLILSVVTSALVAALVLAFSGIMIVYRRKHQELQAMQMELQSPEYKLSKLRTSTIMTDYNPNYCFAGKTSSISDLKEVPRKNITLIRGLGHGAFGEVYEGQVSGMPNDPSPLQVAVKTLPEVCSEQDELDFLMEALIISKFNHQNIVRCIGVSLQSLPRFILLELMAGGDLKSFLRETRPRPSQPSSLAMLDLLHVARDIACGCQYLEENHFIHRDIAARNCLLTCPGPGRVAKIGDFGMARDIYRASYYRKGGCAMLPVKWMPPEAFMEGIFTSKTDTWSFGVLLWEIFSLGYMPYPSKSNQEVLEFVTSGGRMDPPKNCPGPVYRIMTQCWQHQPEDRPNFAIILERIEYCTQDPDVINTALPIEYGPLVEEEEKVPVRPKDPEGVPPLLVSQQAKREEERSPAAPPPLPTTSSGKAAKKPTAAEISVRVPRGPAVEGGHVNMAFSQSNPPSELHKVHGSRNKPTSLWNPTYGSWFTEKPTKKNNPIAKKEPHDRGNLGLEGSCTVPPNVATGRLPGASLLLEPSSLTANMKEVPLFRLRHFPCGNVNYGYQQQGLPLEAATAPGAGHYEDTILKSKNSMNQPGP
UniProt P10398: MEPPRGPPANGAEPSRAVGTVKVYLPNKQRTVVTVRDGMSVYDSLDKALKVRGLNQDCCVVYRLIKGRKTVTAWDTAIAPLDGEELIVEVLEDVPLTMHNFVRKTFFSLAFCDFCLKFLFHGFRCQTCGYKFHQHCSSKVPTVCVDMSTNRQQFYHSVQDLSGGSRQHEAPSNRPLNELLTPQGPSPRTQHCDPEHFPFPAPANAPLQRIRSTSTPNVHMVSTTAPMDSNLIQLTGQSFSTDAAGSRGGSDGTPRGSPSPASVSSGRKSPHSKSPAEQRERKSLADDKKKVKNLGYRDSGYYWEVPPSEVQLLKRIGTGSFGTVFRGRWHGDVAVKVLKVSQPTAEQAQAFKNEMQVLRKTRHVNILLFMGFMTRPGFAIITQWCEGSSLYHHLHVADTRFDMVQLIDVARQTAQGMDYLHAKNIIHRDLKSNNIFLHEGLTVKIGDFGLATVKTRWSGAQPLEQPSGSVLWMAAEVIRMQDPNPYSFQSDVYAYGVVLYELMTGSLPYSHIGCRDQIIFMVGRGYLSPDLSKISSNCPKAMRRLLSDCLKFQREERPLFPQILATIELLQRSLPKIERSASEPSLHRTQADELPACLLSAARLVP
UniProt O14965: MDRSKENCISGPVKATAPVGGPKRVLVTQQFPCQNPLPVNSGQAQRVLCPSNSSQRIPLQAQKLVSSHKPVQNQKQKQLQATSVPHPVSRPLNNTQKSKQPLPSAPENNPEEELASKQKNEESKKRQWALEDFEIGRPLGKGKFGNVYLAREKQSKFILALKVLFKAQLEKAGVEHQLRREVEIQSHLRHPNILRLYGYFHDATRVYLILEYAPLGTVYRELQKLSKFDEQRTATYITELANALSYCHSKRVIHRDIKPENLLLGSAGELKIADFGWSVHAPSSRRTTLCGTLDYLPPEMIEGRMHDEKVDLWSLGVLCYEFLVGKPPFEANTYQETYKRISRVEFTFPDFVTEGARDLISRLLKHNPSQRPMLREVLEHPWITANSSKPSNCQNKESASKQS
UniProt Q9UQB9: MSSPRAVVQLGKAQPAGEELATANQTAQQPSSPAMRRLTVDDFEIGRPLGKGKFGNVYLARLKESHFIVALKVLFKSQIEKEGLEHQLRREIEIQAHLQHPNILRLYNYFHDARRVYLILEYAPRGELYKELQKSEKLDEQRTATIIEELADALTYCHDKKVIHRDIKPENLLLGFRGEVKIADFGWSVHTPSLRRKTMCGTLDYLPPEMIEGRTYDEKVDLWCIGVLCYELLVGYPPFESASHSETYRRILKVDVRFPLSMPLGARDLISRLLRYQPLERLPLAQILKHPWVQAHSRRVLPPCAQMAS
UniProt P51451: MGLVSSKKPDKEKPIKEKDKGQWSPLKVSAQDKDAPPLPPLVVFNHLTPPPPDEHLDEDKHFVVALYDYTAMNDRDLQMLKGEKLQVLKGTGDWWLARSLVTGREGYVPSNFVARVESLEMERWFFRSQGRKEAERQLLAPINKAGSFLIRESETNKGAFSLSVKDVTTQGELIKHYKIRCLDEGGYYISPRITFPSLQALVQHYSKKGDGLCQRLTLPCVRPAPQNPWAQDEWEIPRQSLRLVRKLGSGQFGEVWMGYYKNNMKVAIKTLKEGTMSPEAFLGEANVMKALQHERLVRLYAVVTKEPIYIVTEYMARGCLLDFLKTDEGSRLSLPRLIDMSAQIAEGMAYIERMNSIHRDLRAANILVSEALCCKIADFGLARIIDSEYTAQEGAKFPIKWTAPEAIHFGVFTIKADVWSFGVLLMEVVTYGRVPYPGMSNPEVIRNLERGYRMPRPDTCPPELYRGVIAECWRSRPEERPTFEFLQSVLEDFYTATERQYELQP
UniProt P15056, whole entry, looked up: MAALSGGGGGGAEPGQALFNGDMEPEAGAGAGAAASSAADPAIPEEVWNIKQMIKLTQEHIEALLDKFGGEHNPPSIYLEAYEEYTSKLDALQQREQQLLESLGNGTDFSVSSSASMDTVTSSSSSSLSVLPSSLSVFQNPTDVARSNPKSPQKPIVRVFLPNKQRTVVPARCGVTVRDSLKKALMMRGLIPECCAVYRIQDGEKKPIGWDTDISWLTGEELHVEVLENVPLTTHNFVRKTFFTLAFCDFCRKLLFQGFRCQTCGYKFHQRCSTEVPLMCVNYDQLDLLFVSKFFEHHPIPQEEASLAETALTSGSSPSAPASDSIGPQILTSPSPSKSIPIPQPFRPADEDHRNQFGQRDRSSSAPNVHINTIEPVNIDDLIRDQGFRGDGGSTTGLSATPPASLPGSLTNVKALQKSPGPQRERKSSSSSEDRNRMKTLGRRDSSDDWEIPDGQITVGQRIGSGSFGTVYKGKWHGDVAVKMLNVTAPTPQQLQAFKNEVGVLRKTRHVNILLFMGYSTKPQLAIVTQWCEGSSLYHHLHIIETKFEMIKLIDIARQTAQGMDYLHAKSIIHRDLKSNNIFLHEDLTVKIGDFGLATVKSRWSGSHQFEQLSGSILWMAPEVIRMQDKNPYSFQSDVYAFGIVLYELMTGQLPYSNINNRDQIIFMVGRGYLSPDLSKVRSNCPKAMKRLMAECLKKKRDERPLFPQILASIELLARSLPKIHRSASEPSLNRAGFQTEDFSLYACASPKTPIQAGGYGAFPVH

Key:
Conditions in all cases: K562; 2-18 h
STK38 = STK38 (UniProt Q15208); assay: kinase-Nluc reporter destabilization hit call (1 = scored as downregulated) (binary); higher = compound decreases kinase abundance
SYK = SYK (UniProt P43405); assay: as above
TEC = TEC (UniProt P42680); assay: as above
TYK2 = TYK2 (UniProt P29597); assay: as above
ULK3 = ULK3 (UniProt Q6PHR2); assay: as above
YES1 = YES1 (UniProt P07947); assay: as above
ZAK = ZAK (UniProt Q9NYL2); assay: as above
ZAP70 = ZAP70 (UniProt P43403); assay: as above
ABL1 = ABL1 (UniProt P00519); assay: number of time points (of 5) at which kinase-Nluc abundance scored as decreased, DMSO-normalised (count); higher = more persistent destabilization
AKT1 = AKT1 (UniProt P31749); assay: as above
ALK = ALK (UniProt Q9UM73); assay: as above
ARAF = ARAF (UniProt P10398); assay: as above
AURKA = AURKA (UniProt O14965); assay: as above
AURKB = AURKB (UniProt Q96GD4); assay: as above
AURKC = AURKC (UniProt Q9UQB9); assay: as above
BLK = BLK (UniProt P51451); assay: as above
BMX = BMX (UniProt P51813); assay: as above
BRAF = BRAF (UniProt P15056); assay: as above
BTK = BTK (UniProt Q06187); assay: as above
BRAF_V600E = assay: as above

SMILES	kinase-Nluc reporter destabilization hit call (STK38)	kinase-Nluc reporter destabilization hit call (SYK)	kinase-Nluc reporter destabilization hit call (TEC)	kinase-Nluc reporter destabilization hit call (TYK2)	kinase-Nluc reporter destabilization hit call (ULK3)	kinase-Nluc reporter destabilization hit call (YES1)	kinase-Nluc reporter destabilization hit call (ZAK)	kinase-Nluc reporter destabilization hit call (ZAP70)	number of time points (ABL1)	number of time points (AKT1)	number of time points (ALK)	number of time points (ARAF)	number of time points (AURKA)	number of time points (AURKB)	number of time points (AURKC)	number of time points (BLK)	number of time points (BMX)	number of time points (BRAF)	number of time points (BTK)	number of time points (BRAF_V600E)
O=C(Nc1cc(C(F)(F)F)ccc1N1CCN(Cc2ccccn2)CC1)c1ccc(-c2ccncc2)o1 (10 µM)	inactive: 0	inactive: 0	inactive: 0	inactive: 0	inactive: 0	inactive: 0	inactive: 0	inactive: 0	0	0	0	0	0	0	0	3	0	2	0	–
CCOc1cc2ncc(-c3cc(N)nc(F)c3)n2cc1S(=O)(=O)C(C)(C)C (10 µM)	inactive: 0	inactive: 0	inactive: 0	inactive: 0	inactive: 0	inactive: 0	inactive: 0	inactive: 0	0	0	0	0	0	0	0	0	0	0	0	–
O=C1NC(=NCc2cccs2)S/C1=C\c1ccc2ncccc2c1 (10 µM)	inactive: 0	inactive: 0	inactive: 0	inactive: 0	inactive: 0	inactive: 0	inactive: 0	inactive: 0	0	0	0	0	0	0	0	0	0	5	0	0
COc1cc2ncnc(Nc3cccc(Cl)c3F)c2cc1OC(=O)N1CCN(C)C[C@H]1C [Zorifertinib] (10 µM)	inactive: 0	inactive: 0	inactive: 0	inactive: 0	inactive: 0	inactive: 0	inactive: 0	inactive: 0	0	0	0	0	0	0	0	0	0	0	0	0
Nc1nc(OCC2CCCCC2)c2[nH]cnc2n1 (10 µM)	inactive: 0	inactive: 0	inactive: 0	inactive: 0	inactive: 0	inactive: 0	inactive: 0	inactive: 0	0	0	0	0	0	0	0	0	0	0	0	0
Cc1cc(CS(=O)(=O)c2ccccc2)cc(OCc2ccc(CN3CCC[C@@H]3CO)cc2)c1 [PF-543 (Citrate)] (10 µM)	inactive: 0	inactive: 0	inactive: 0	inactive: 0	inactive: 0	inactive: 0	inactive: 0	inactive: 0	0	0	0	0	0	0	0	0	0	0	0	–
COc1cc(OC)cc(N(CCNC(C)C)c2ccc3ncc(-c4cnn(C)c4)nc3c2)c1 [Erdafitinib] (2.5 µM)	inactive: 0	inactive: 0	inactive: 0	inactive: 0	inactive: 0	inactive: 0	inactive: 0	inactive: 0	0	0	0	0	0	0	0	0	0	0	0	0
C/C=C(/C)C(=O)O[C@H]1Cc2cc3ccc(=O)oc3cc2OC1(C)C [Decursinol angelate] (10 µM)	inactive: 0	inactive: 0	inactive: 0	inactive: 0	inactive: 0	inactive: 0	inactive: 0	inactive: 0	0	0	0	0	0	0	0	0	0	0	0	0
CCN(CCO)CCCOc1ccc2c(Nc3cc(CC(=O)Nc4cccc(F)c4)[nH]n3)ncnc2c1 [Barasertib-HQPA] (10 µM)	inactive: 0	inactive: 0	inactive: 0	inactive: 0	inactive: 0	inactive: 0	inactive: 0	inactive: 0	0	0	0	0	0	0	0	0	0	0	0	0
Cc1cc(C(=O)Nc2cccc(C(=O)Nc3cccc(C(F)(F)F)c3)c2)on1 (10 µM)	inactive: 0	inactive: 0	inactive: 0	inactive: 0	inactive: 0	inactive: 0	inactive: 0	inactive: 0	0	0	0	0	0	0	0	0	0	0	0	0
COc1cc(C=C(C#N)C(N)=O)cc(CSc2nc3ccccc3s2)c1O (10 µM)	inactive: 0	inactive: 0	inactive: 0	inactive: 0	inactive: 0	inactive: 0	inactive: 0	inactive: 0	0	0	0	0	0	0	0	0	0	0	0	0
CN1CCN(C2CCN(C(=O)Nc3cc(Oc4ccc(NC(=O)C5(C(=O)Nc6ccc(F)cc6)CC5)c(F)c4)ccn3)CC2)CC1 [Golvatinib] (2.5 µM)	inactive: 0	inactive: 0	inactive: 0	inactive: 0	inactive: 0	inactive: 0	inactive: 0	inactive: 0	2	0	0	0	0	0	0	0	0	0	0	1
Cc1ccc2c(Nc3cccc(OC(F)(F)F)c3)nccc2c1Nc1ncccc1-c1ncnc2[nH]cnc12 (10 µM)	inactive: 0	inactive: 0	inactive: 0	inactive: 0	inactive: 0	inactive: 0	inactive: 0	inactive: 0	0	0	0	0	0	0	0	0	0	0	0	0
N#C/C(=C\c1ccc(O)c(O)c1)C(=O)NCCCc1ccccc1 (10 µM)	inactive: 0	inactive: 0	inactive: 0	inactive: 0	inactive: 0	inactive: 0	inactive: 0	inactive: 0	0	0	0	0	0	0	0	0	0	0	0	0
COc1cc2ncnc(Nc3cccc(O)c3)c2cc1OC (10 µM)	inactive: 0	inactive: 0	inactive: 0	inactive: 0	inactive: 0	inactive: 0	inactive: 0	inactive: 0	4	0	3	0	1	2	0	1	2	1	0	3
Cc1c[nH]c2ccccc12 [Skatole] (10 µM)	inactive: 0	inactive: 0	inactive: 0	inactive: 0	inactive: 0	inactive: 0	inactive: 0	inactive: 0	0	0	0	0	0	0	0	0	0	0	0	0
C=CC(=O)Nc1ccc2ncnc(Nc3cccc(Br)c3)c2c1 (10 µM)	inactive: 0	inactive: 0	inactive: 0	inactive: 0	inactive: 0	inactive: 0	inactive: 0	inactive: 0	0	0	0	0	0	0	0	4	0	0	0	4

As entered above.
Value for CCN(CCO)CCCOc1ccc2c(Nc3cc(CC(=O)Nc4cccc(F)c4)[nH]n3)ncnc2c1 [Barasertib-HQPA] (10 µM) under number of time points (BRAF_V600E): 0
Value for C=CC(=O)Nc1ccc2ncnc(Nc3cccc(Br)c3)c2c1 (10 µM) under kinase-Nluc reporter destabilization hit call (YES1): inactive: 0

Next part.

SMILES	kinase-Nluc reporter destabilization hit call (STK38)	kinase-Nluc reporter destabilization hit call (SYK)	kinase-Nluc reporter destabilization hit call (TEC)	kinase-Nluc reporter destabilization hit call (TYK2)	kinase-Nluc reporter destabilization hit call (ULK3)	kinase-Nluc reporter destabilization hit call (YES1)	kinase-Nluc reporter destabilization hit call (ZAK)	kinase-Nluc reporter destabilization hit call (ZAP70)	number of time points (ABL1)	number of time points (AKT1)	number of time points (ALK)	number of time points (ARAF)	number of time points (AURKA)	number of time points (AURKB)	number of time points (AURKC)	number of time points (BLK)	number of time points (BMX)	number of time points (BRAF)	number of time points (BTK)	number of time points (BRAF_V600E)
Nc1ncnc2c1c(-c1ccc(Oc3ccccc3)cc1)cn2C1CCCC1 (2.5 µM)	inactive: 0	inactive: 0	inactive: 0	inactive: 0	inactive: 0	inactive: 0	inactive: 0	inactive: 0	0	0	0	0	1	0	0	0	0	0	0	0
O=c1c(O)c(-c2ccc(O)c(O)c2)oc2cc(O)cc(O)c12 [Quercetin (dihydrate)] (10 µM)	inactive: 0	inactive: 0	inactive: 0	inactive: 0	inactive: 0	inactive: 0	inactive: 0	inactive: 0	0	0	0	0	0	0	0	0	0	0	0	0
CN1CCN(C(=O)c2ccc(-c3ccc4c(C=O)c(O)ccc4c3)s2)CC1 (2.5 µM)	inactive: 0	inactive: 0	inactive: 0	inactive: 0	inactive: 0	inactive: 0	inactive: 0	inactive: 0	0	0	0	0	0	0	0	0	0	0	0	0
COc1ccc2c(C(=O)Nc3ccc(NC(=O)c4nn(C5CCN(C(=O)CC(C)(C)C#N)CC5)c5ccc(F)cc45)cc3Cl)cnn2c1 [Src Inhibitor 3] (2.5 µM)	inactive: 0	inactive: 0	inactive: 0	inactive: 0	inactive: 0	inactive: 0	inactive: 0	inactive: 0	3	0	2	1	1	1	1	2	3	2	0	2
CC(C)(C)c1nc2c3cc[nH]c(=O)c3c3cc(F)ccc3c2[nH]1 [Pyridone 6] (10 µM)	inactive: 0	inactive: 0	inactive: 0	inactive: 0	inactive: 0	inactive: 0	inactive: 0	inactive: 0	0	0	0	0	0	0	0	0	0	0	0	0
CC(C)c1ccc2oc3nc(N)c(C(=O)O)cc3c(=O)c2c1 [Amlexanox] (10 µM)	inactive: 0	inactive: 0	inactive: 0	inactive: 0	inactive: 0	inactive: 0	inactive: 0	inactive: 0	0	0	0	0	0	0	0	0	0	0	0	–
Brc1c(Br)c(Br)c2n[nH]nc2c1Br (10 µM)	inactive: 0	inactive: 0	inactive: 0	inactive: 0	inactive: 0	inactive: 0	inactive: 0	inactive: 0	0	0	0	0	0	0	0	0	0	0	0	0
COc1cc(CCc2cc(-c3nc4ccc(N5CCN(C)CC5)cc4[nH]3)n[nH]2)cc(OC)c1 (10 µM)	inactive: 0	inactive: 0	inactive: 0	inactive: 0	inactive: 0	inactive: 0	inactive: 0	inactive: 0	4	0	0	0	0	0	0	1	1	0	0	–
Cc1[nH]c(/C=C2\C(=O)Nc3ccc(S(=O)(=O)Cc4c(Cl)cccc4Cl)cc32)c(C)c1C(=O)N1CCC[C@@H]1CN1CCCC1 (2.5 µM)	inactive: 0	inactive: 0	inactive: 0	inactive: 0	inactive: 0	inactive: 0	inactive: 0	inactive: 0	0	0	0	0	0	0	0	0	0	0	0	0
Cc1cc(F)c(C(=O)Nc2cccc(-c3nncn3C(C)C)n2)cc1-n1cnc(C2CC2)c1 [Selonsertib] (10 µM)	inactive: 0	inactive: 0	inactive: 0	inactive: 0	inactive: 0	inactive: 0	inactive: 0	inactive: 0	0	0	0	0	0	0	0	0	0	0	0	–
CC(C)(C)S(=O)(=O)c1cc2c(Nc3ccc4scnc4c3)ncnc2cc1OCCO (2.5 µM)	inactive: 0	inactive: 0	inactive: 0	inactive: 0	inactive: 0	inactive: 0	inactive: 0	inactive: 0	0	0	0	0	0	0	0	0	0	0	0	0
CC1(C)CC=C(c2nc(C3CC(C)(C)OC(C)(C)C3)ccc2NC(=O)c2nc(C#N)c[nH]2)CC1 [Edicotinib] (2.5 µM)	inactive: 0	inactive: 0	inactive: 0	inactive: 0	inactive: 0	inactive: 0	inactive: 0	inactive: 0	0	0	0	0	0	0	0	0	0	0	0	0
CCCn1cnc2c(NCc3ccccc3)nc(NC(CC)CO)nc21 (stereo unspecified) [Ca2+ channel agonist 1] (2.5 µM)	inactive: 0	inactive: 0	inactive: 0	inactive: 0	inactive: 0	inactive: 0	inactive: 0	inactive: 0	0	0	0	0	0	0	0	0	0	0	0	0
O=C(NOC[C@H](O)CO)c1ccc(F)c(F)c1Nc1ccc(I)cc1F (2.5 µM)	inactive: 0	inactive: 0	inactive: 0	inactive: 0	inactive: 0	inactive: 0	inactive: 0	inactive: 0	2	0	0	0	1	0	0	0	0	0	0	–
COc1cc(C(=O)NC2CCN(C)CC2)ccc1Nc1ncc2c(n1)N(C1CCCC1)CC(F)(F)C(=O)N2C (10 µM)	inactive: 0	inactive: 0	inactive: 0	inactive: 0	inactive: 0	inactive: 0	inactive: 0	inactive: 0	0	0	0	0	0	0	0	0	0	0	0	–
CC(C)C(=O)Nc1ncc(-c2cc(C(F)F)nn2-c2c(Cl)cccc2Cl)s1 (10 µM)	inactive: 0	inactive: 0	inactive: 0	active: 1	inactive: 0	inactive: 0	inactive: 0	inactive: 0	0	0	0	0	0	0	0	0	5	0	0	0
O=C(c1ccc(-c2ccc(Cl)cc2)o1)N(Cc1ccccn1)c1ccc(N2CCNCC2)cc1 [MK2-IN-1 (hydrochloride)] (10 µM)	inactive: 0	inactive: 0	inactive: 0	inactive: 0	inactive: 0	–	inactive: 0	inactive: 0	0	0	0	0	1	0	0	0	0	0	0	0
